Values of other authors as cited in patent US10172826B2, “Composition and method to treat and alleviate symptoms of hot flashes in a subject” (U.S. NUTRACEUTICALS, LLC, priority 2015, dated 2019).
At least one structure is not confirmed: it was looked up by name or label, or the drawing left a doubt.

Tested on: estrogen sensitive human breast and endometrial cancer cells
Conditions: cell cycle progression in G0/G1 phase; cited from earlier work

CC1=C(/C=C/C(C)=C/C=C/C(C)=C/C(=O)O)C(C)(C)CCC1 [retinoic acid]
Inhibition of IGF-1 induced proliferation: inhibit
